Laboratory results taken from PubChem BioAssay AID540256 (National Center for Advancing Translational Sciences (NCATS), 2011).
The whole screen tested about 300,000 compounds, of which about 3,700 (1.2%) were called active. The inconclusive results got no clear call from the source; some entries with a clear call stand among them for comparison. The call rests on the fitted dose curve; tested in HEK293 cells. Potencies beside an inconclusive call are fits to weak or partial responses and may not hold up.

assay: qHTS for Inhibitors of binding or entry into cells for Lassa Virus; settings: Lassa virus pseudotype entry inhibition, cell reporter; series mostly up to 37.9 µM; further: nearly all actives have a fitted effect of over 50% in size
Potency means the concentration at half of the fitted maximal effect.

SMILES | Potency
COc1cc(/C=N/n2c(-c3ccccc3)n[nH]c2=S)cc(OC)c1OC | inconclusive: 12.6 µM [inhibitor, partial curve, poor fit]
Fc1ccc(-c2cc(-c3nc(-c4ccccc4)no3)[nH]n2)cc1 | inconclusive: 22.4 µM [inhibitor, single point]
Cc1ccc(S(=O)(=O)N(C)C)cc1NC(=S)N1CCc2ccccc21 | inconclusive: 12.6 µM [inhibitor, partial curve, poor fit]
COc1ccccc1N1CCN(CCNC(=O)Nc2cccc(C)c2C)CC1 | inconclusive: 35.5 µM [inhibitor, single point]
COCCn1c(=O)[nH]c(=O)c2c1nc(-c1ccc(-c3ccc(Cl)cc3[N+](=O)[O-])o1)n2Cc1ccccc1 | active: 10 µM
CCN(CC)S(=O)(=O)c1ccc(C)c(NC(=O)CSc2nc3ccc(C)cc3[nH]2)c1 | inconclusive: 25.1 µM [inhibitor, partial curve, poor fit]
O=C(Cc1ccccc1F)Nc1nc(-c2cccs2)cs1 | inconclusive: 4.61 µM [inhibitor, partial curve]
N#Cc1ccc(CSc2ccc(S(=O)(=O)N3CCCCCC3)cn2)cc1 | inconclusive: 35.5 µM [inhibitor, partial curve, poor fit]
CC(O)(c1cccs1)C(C(=O)O)c1ccccc1 (stereo not given) | inactive
O=C(NCCCl)NNC(=O)c1cc2ccccc2cc1O | inactive
Cc1ccc2[nH]c(CN3CCC(CO)(CC4CCCCO4)CC3)c(C)c2c1 (stereo not given) | active: 5.01 µM
COc1ccc(Br)cc1CN1CCCC(C(=O)N2CCCCC2)C1 (stereo not given) | inconclusive: 25.9 µM [inhibitor, single point]
C=CCOc1c(Br)cc(CNn2nnnc2N)cc1OCC | inactive
Cc1ccc(OCC(=O)Nc2ccc(OCc3cc(=O)n4ccsc4n3)cc2)cc1 | inactive
CCOC(=O)N1CCN(c2nc(-c3cccs3)nc3ccccc23)CC1 | inconclusive: 35.5 µM [inhibitor, single point]
Cn1nc(C(=O)NCc2cccc(Cl)c2)c2c1-c1ccccc1SC2 | inactive
Cc1nc2ccc(NC(=O)c3cccs3)cc2c(=O)n1Cc1ccc(Cl)cc1 | inconclusive: 9.2 µM [inhibitor, partial curve, poor fit]
CCOc1ccc(S(=O)(=O)N2CCN(C(=S)NCc3ccco3)CC2)cc1 | inactive
O=S(=O)(NCc1ccccc1Cl)c1ccc(-c2cnc(C3CC3)o2)cc1 | inconclusive: 3.98 µM [inhibitor, full curve, poor fit]
COc1ccc(N2C(=O)CSC23C(=O)N(Cc2ccccc2F)c2ccccc23)cc1Cl (stereo not given) | inconclusive: 17.8 µM [inhibitor, single point]
CN(C)CCN(CC1CCCN(Cc2ccccc2F)C1)C(=O)c1ccc(Cl)cc1 (stereo not given) | inconclusive: 35.5 µM [inhibitor, single point]
Cc1c(C#N)c(N)nc(Cl)c1C#N | inconclusive: 35.5 µM [inhibitor, single point]

SMILES | Potency
O=C(CSc1nc2ccsc2c(=O)n1NC(=O)c1ccccc1)NCc1ccco1 | inconclusive: 16.4 µM [activator, single point]
CC(C)(C)OC(=O)NCCCCCc1nnc(SCc2ccc(F)cc2)o1 | inactive
CCOC(=O)c1cc(S(=O)(=O)NC2CCN(C(=O)OCC)CC2)cn1C | inconclusive: 7.94 µM [inhibitor, partial curve]
O=C(CN1C(=O)c2ccccc2S1(=O)=O)N1CCc2ccccc21 | active: 0.259 µM
O=C1CC(N2CCC(Cc3ccccc3)CC2)C(=O)N1CCc1ccccc1 (stereo not given) | inconclusive: 29.1 µM [inhibitor, single point]
CN(C)S(=O)(=O)c1ccc(NC(=O)c2cc(-c3cccs3)nc3ccccc23)cc1 | inconclusive: 0.366 µM [inhibitor, partial curve, poor fit]
CCc1ccc(C(=O)N2CCN(c3ccc(NC(=O)c4ccco4)cc3)CC2)cc1 | inconclusive: 17.8 µM [inhibitor, single point]
CC1=C(C(=O)NCCN2CCN(C)CC2)C2(CCC(C)CC2)OC1=O (stereo not given) | inconclusive: 29.1 µM [activator, single point]
Cn1c(N)c(C(=O)c2ccc(Oc3ccccc3)cc2)c(=O)n(C)c1=O | inconclusive: 32.6 µM [activator, partial curve, poor fit]
CCN(CC)CCn1c(/N=C/c2cc(Br)ccc2O)nc2ccccc21 | inconclusive: 16.4 µM [activator, single point]
O=C(NCc1ccc(F)cc1)c1cc(Sc2ccc(F)cc2F)nc2ccccc12 | inconclusive: 28.2 µM [inhibitor, single point]
CCOC(=O)C1CCN(c2ncnc3c(C)csc23)CC1 | inconclusive: 3.55 µM [activator, full curve]
O=C(NC1CC2CCC1C2)c1ccc(CN2CCOCC2)cc1 (stereo not given) | inactive
COCC(C)NC(=O)c1oc2c(c1C)C1(CCC2)SCCS1 (stereo not given) | inconclusive: 32.6 µM [inhibitor, single point]
O=C(N/N=C/c1ccc2c(c1)OCO2)c1ccccn1 | inconclusive: 14.6 µM [inhibitor, single point]
COc1ccc(C(=O)NCC(C)NC(=O)c2ccc(OC)c(Br)c2)cc1Br (stereo not given) | inconclusive: 3.16 µM [inhibitor, partial curve, poor fit]
COc1ccc(N2CCN(c3ncnc4c3cnn4-c3ccc(C)c(Cl)c3)CC2)cc1 | inactive
CC1=C(C(=O)OC2CCCCCC2)C(c2ccc(C)o2)C2=C(CCCC2=O)N1 (stereo not given) | inconclusive: 29.1 µM [inhibitor, single point]
CC(=O)N1c2ccccc2NC2=C(C(=O)CCC2)C1c1ccc(F)cc1 (stereo not given) | inconclusive: 0.116 µM [inhibitor, full curve, poor fit]
Cc1ccc(CNC(=O)CCS(=O)(=O)c2cc3c(cc2Cl)NC(=O)CO3)cc1 | inconclusive: 35.5 µM [inhibitor, partial curve, poor fit]
O=C(OCC(=O)c1ccccc1Br)c1ccncc1 | inconclusive: 35.5 µM [inhibitor, single point]
COC(=O)N/N=C/c1cc(C)n(-c2cccc3ccccc23)c1C | inconclusive: 3.55 µM [inhibitor, partial curve, poor fit]

SMILES | Potency
CC1=C(c2ccc(C)cc2)S(=O)(=O)NC1=NCCCN1CCN(c2cc(C)ccc2C)CC1 | inconclusive: 35.5 µM [inhibitor, single point]
COc1ccc(/C=C/C(=O)N2CCC(c3ccccc3)C2)cc1 (stereo not given) | inconclusive: 2.59 µM [inhibitor, partial curve, poor fit]
CCC(=O)N1CCc2cc(Br)cc(S(=O)(=O)CCC(=O)N(C)c3cccc(C)c3)c21 | inactive
CCOc1ccc(NC(=O)CC2C(=O)N(c3ccc(F)cc3)C(=O)N2CCc2sccc2C)cc1 (stereo not given) | inconclusive: 11.2 µM [inhibitor, partial curve]
COc1ccc(N2C(=O)C(CC(=O)Nc3ccc(F)cc3)N(CCc3cccs3)C2=O)cc1 (stereo not given) | inconclusive: 29.1 µM [inhibitor, single point]
O=C(Cc1ccccc1[N+](=O)[O-])Nc1ccccc1C(=O)N1CCOCC1 | active: 10 µM
Cc1nc(Nc2ccccc2C(F)(F)F)sc1C(=O)N(C)C | inactive
O=C(Nc1nnc(-c2cccs2)o1)c1cc(-c2ccccc2)nc2ccccc12 | inconclusive: 29.1 µM [inhibitor, single point]
COc1cccc(NC(=O)COC(=O)CCCC2=NS(=O)(=O)c3ccccc3N2)c1 | inconclusive: 3.16 µM [activator, full curve, poor fit]
COc1ccc(OC)c(N(C(=O)c2ccco2)C(C(=O)NC2CCCC2)c2cc(OC)c(OC)c(OC)c2)c1 (stereo not given) | inconclusive: 2 µM [inhibitor, partial curve, poor fit]
O=C(Nc1c(Cl)cccc1Cl)c1cccc2c1C(=O)N(C1CCCCC1)C2 | inactive
N#Cc1ccc(NC(=O)COC(=O)CCNS(=O)(=O)c2ccccc2)cc1 | inactive
CCN(CC)CCCNC(=O)CSc1nc2nc(C)c(Cc3ccccc3C)c(C)n2n1 | inconclusive: 2.51 µM [inhibitor, partial curve, poor fit]
CCN(CC)S(=O)(=O)c1cc(NS(=O)(=O)c2c(Cl)cccc2Cl)ccc1C | inconclusive: 0.0651 µM [inhibitor, partial curve, poor fit]
CCCCCCN(C(=O)CCCCCN1C(=O)NC(c2ccc(-c3ccccc3)cc2)C(C(=O)OCc2ccccc2)=C1C)C(C(=O)NCCCC)c1ccc(OCC(=O)OC)cc1 (stereo not given) | inactive
COC(=O)CC=C[C@@H](C)[C@@H](C=NOC[C@H]1O[C@H](c2ccccc2)C=C[C@H]1Oc1ccc(OC)cc1)N[S+](=O)([O-])c1ccc(C)cc1 | inconclusive: 0.0008 µM [inhibitor]
Cc1cc(C)n(CC2CC(=O)N(c3ccc(F)c(Cl)c3)C2=O)n1 (stereo not given) | inactive
COC(=O)c1ccc(COC(=O)Cc2n[nH]c(=O)c3ccccc23)cc1 | inconclusive: 1.41 µM [activator, full curve, poor fit]
C=CCc1cc(Cl)ccc1OCCCNC(C)C | inconclusive: 1.26 µM [activator, single point]
O=C(O)Cn1nc(-c2ccccc2)cc1-c1ccccc1 | inconclusive: 0.708 µM [inhibitor, single point]
O=c1c2ccccc2sc2c(CO)ccc(NCCN3CCCCC3)c12 | inconclusive: 35.5 µM [inhibitor, single point]

Reprinted at random: 3 records from the list, in no set order.
SMILES | Potency
O=C(O)Cn1nc(-c2ccccc2)cc1-c1ccccc1 | inconclusive: 0.708 µM [inhibitor, single point]
O=C(Nc1c(Cl)cccc1Cl)c1cccc2c1C(=O)N(C1CCCCC1)C2 | inactive
COC(=O)CC=C[C@@H](C)[C@@H](C=NOC[C@H]1O[C@H](c2ccccc2)C=C[C@H]1Oc1ccc(OC)cc1)N[S+](=O)([O-])c1ccc(C)cc1 | inconclusive: 0.0008 µM [inhibitor]
